Reference: PMC5869712 (Scientific Reports, 2018)

System: IL-6-induced STAT3 phosphorylation (JAK1)
Assay: IL-6-induced pSTAT3 in total lymphocytes in hPBMCs, flow cytometry
Type: cell-based
Conditions: Homo sapiens, Lymphocyte

## C[C@@H]1CCN(C(=O)CC#N)C[C@@H]1N(C)c1ncnc2[nH]ccc12 [Tofacitinib, reference compound]
  IC50: 0.073 µM
